# Measurements reported in article PMC4751435 (2016).
# Protein sequences, listed by entry. Tags and fused reporters are not part of them. Lines headed by an entry give the natural chain unless they say otherwise; changes in a name come on top.
# UniProt O75925: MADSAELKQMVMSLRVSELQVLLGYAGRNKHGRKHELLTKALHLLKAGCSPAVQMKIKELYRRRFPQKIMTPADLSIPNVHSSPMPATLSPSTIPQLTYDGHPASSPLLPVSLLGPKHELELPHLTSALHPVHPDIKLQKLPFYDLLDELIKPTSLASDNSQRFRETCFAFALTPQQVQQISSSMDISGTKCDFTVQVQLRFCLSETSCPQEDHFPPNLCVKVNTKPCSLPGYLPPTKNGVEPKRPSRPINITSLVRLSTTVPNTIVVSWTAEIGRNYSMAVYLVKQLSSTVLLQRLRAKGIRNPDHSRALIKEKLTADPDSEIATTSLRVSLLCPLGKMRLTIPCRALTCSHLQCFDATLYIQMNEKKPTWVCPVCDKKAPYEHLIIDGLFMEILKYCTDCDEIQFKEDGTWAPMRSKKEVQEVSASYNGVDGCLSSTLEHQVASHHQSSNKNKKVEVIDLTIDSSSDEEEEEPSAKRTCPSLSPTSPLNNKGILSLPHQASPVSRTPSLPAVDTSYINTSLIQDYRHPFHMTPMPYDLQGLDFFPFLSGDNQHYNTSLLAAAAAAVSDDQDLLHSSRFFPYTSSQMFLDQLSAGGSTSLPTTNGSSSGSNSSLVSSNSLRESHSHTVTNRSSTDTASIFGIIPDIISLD
# UniProt P61956: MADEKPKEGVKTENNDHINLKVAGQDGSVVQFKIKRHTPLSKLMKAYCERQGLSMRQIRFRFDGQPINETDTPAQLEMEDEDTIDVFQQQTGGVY
# UniProt P55854: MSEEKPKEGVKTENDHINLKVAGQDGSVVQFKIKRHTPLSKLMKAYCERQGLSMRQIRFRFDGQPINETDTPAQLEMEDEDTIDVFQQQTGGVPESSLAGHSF
# UniProt O15409: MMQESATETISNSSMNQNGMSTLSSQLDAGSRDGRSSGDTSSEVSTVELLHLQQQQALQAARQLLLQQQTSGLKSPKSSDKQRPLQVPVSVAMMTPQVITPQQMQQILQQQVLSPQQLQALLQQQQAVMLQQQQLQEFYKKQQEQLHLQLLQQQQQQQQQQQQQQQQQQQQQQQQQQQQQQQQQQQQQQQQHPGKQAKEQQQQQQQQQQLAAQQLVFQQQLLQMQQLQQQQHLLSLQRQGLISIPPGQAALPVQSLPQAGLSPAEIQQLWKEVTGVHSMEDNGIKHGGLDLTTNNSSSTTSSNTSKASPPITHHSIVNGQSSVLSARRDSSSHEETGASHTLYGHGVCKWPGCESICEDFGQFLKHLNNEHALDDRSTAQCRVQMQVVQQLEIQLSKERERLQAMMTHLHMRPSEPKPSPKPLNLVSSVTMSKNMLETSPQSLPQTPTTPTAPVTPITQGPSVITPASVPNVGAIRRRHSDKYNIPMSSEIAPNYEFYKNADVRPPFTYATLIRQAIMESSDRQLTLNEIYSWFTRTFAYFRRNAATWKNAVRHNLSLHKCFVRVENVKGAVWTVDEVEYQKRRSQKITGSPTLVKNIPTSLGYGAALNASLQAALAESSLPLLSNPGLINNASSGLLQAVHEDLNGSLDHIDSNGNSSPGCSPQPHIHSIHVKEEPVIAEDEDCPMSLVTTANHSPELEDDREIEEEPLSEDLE
# How the values were obtained:
# Assay in all cases: FRET or BRET; BRET in live HEK293 cells transfected with a Renilla luciferase fusion (donor) and a YFP fusion (acceptor); control donor a nuclear-targeted luciferase; mean corrected BRET ratios, n = 3
# [1] = molecular target: YFP-PIAS1 C350S mutant (human) (UniProt O75925)
# [2] = molecular target: YFP-SUMO2 alanine mutant (AA) (human) (UniProt P61956)
# [3] = molecular target: YFP-SUMO3 (wild-type, GG) (human) (UniProt P55854)
# [4] = molecular target: YFP-SUMO3 alanine mutant (AA) (human) (UniProt P55854)
# [5] = molecular target: YFP-SUMO3 (wild-type, GG) (human) (UniProt P55854); remark: listed apart in the source
Molecule,binding [1],binding [2],binding [3],binding [4],binding [5]
"luciferase-FOXP2 (wild-type, full-length 1-715) (from UniProt O15409 1-715)",no binding,no binding,binds,no binding,
luciferase-FOXP2 K674R mutant (from UniProt O15409 1-715),,no binding,binds,no binding,
"luciferase-FOXP1 (protein, UniProt Q9H334 1-677) MMQESGTETKSNGSAIQNGSGGSNHLLECGGLREGRSNGETPAVDIGAADLAHAQQQQQQALQVARQLLLQQQQQQQVSGLKSPKRNDKQPALQVPVSVAMMTPQVITPQQMQQILQQQVLSPQQLQVLLQQQQALMLQQQQLQEFYKKQQEQLQLQLLQQQHAGKQPKEQQQVATQQLAFQQQLLQMQQLQQQHLLSLQRQGLLTIQPGQPALPLQPLAQGMIPTELQQLWKEVTSAHTAEETTGNNHSSLDLTTTCVSSSAPSKTSLIMNPHASTNGQLSVHTPKRESLSHEEHPHSHPLYGHGVCKWPGCEAVCEDFQSFLKHLNSEHALDDRSTAQCRVQMQVVQQLELQLAKDKERLQAMMTHLHVKSTEPKAAPQPLNLVSSVTLSKSASEASPQSLPHTPTTPTAPLTPVTQGPSVITTTSMHTVGPIRRRYSDKYNVPISSADIAQNQEFYKNAEVRPPFTYASLIRQAILESPEKQLTLNEIYNWFTRMFAYFRRNAATWKNAVRHNLSLHKCFVRVENVKGAVWTVDEVEFQKRRPQKISGNPSLIKNMQSSHAYCTPLNAALQASMAENSIPLYTTASMGNPTLGNLASAIREELNGAMEHTNSNESDSSPGRSPMQAVHPVHVKEEPLDPEEAEGPLSLVTTANHSPDFDHDRDYEDEPVNEDME",,,,,binds

# Like-named read-outs stand apart in the source and are kept apart here. These are yes or no findings as the source states them, for the method shown. Binding seen in cells or lysates may run through a third protein. For some assays here: Binding calls can cover weak binding; strength is not graded here. For some assays here: Tags and fused reporters may be left off the sequences shown.
